Among the data in PubChem BioAssay AID493014 (National Center for Advancing Translational Sciences (NCATS), 2011) are AC50 values, retold here.

The other results are listed elsewhere or left out. Further columns of the screen follow, without active or inactive calls. Most of these compounds were active or inconclusive in the main read-out, so they are no random draw. The note in brackets gives the kind of curve behind each potency; many fits are weak.

This test is described as follows: qHTS Assay to Find Inhibitors of Chronic Active B-Cell Receptor Signaling. Particulars: ABC-DLBCL IkBa-CBG/CBR reporter, luminescence ratio (green luciferase fused to IkBa over red control in TMD8 lymphoma cells), 4 h. A digest of the protocol: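 Concentration-response series (up to 46 uM) were applied to TMD8 dual-reporter cells for 4 h at 37C with doxycycline. Green/red ratio, after filter-overlap correction, defined %Activity; red signal alone was normalised to basal cells and zero luminescence.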
On the technique in general: Quantitative high-throughput screening tests each substance at several concentrations.

Where [1] appears, read: measured here: CBR red luminescence, cell number.
The mark [2] stands for this setting: measured here: IkBa-CBG green luminescence.

With `Cc1ccc2c(CC(=O)NCC3(N4CCOCC4)CCCCC3)coc2c1C`, under setting [1], the AC50 is 20.6 µM [falling, partial curve, poor fit].

For the compound `COC(=O)c1ccc(Cl)c(NC(=O)CSc2nnc(-c3ccncc3)o2)c1`, the AC50 under setting [1] was 11.2 µM [falling, single point].

Consider `NS(=O)(=O)c1ccc(N=Nc2ccc(O)c3ncccc23)cc1`, for which, under setting [1], the AC50 is 7.08 µM [rising, partial curve].

Turning to `O=C(CCc1ccccc1)Nc1nc2n(n1)C(c1ccccc1)CC(=O)N2` (configuration not stated), the AC50 under setting [1] is 0.562 µM [falling, full curve, poor fit].

Take `COc1ccccc1/C=N/NC(=O)c1cccc(NC(=O)c2ccccc2Cl)c1`: under setting [1], the AC50 is 2.82 µM [falling, partial curve, poor fit].

Regarding `COc1ccc(C2NC3=C(CCC3)C3(C#N)C4(N=C(N)C23C#N)OCCO4)cc1` (configuration not stated), under setting [1], the AC50 was 35.5 µM [falling, partial curve, poor fit].

As to `Cc1ccc(C2NC(c3ccc(C)cc3)C(C)C(=O)C2C)cc1` (configuration not stated), the AC50 under setting [1] was 14.1 µM [rising, single point].

Turning to `O=C(c1ccco1)N1CCN(c2cccc(Cl)c2)CC1`, the AC50 under setting [1] was 0.82 µM [rising, full curve, poor fit].

For the compound `O=C(NCC1CCN(Cc2cccc(Cl)c2)CC1)Nc1ccc(Cl)cc1`, the AC50 under setting [1] is 2.51 µM [rising, partial curve, poor fit].

Turning to `Cc1ccnc(NS(=O)(=O)c2ccc(NC(=O)c3oc4ccccc4c3C)cc2)n1`, the AC50 under setting [1] was 0.562 µM [falling, partial curve, poor fit].

In the case of `CCCn1c(CCC(=O)Nc2ccccc2Cc2ccccc2)nc2cc(S(=O)(=O)N3CCOCC3)ccc21`, the AC50 under setting [1] was 6.51 µM [rising, single point].

As for `COc1cccc(CNC(=O)Nc2cccs2)c1`, the AC50 under setting [1] is 5.62 µM [falling, partial curve, poor fit].

As for `COC(=O)c1ccccc1NC(=O)/C=C/C(=O)O`, the AC50 under setting [1] was 29.1 µM [falling, single point].

For the compound `COc1ccccc1NC(=O)C(C)OC(=O)c1nc2nc(C)cc(C)n2n1` (configuration not stated), the AC50 under setting [1] was 0.411 µM [rising, full curve, poor fit].

Take `Cc1ccc2nc(SCC(=O)Nc3cccc4ccccc34)nc(=O)n2c1`: the AC50 under setting [1] is 0.13 µM [falling, full curve, poor fit].

In the case of `C[C@H](NC(=O)N1CCn2c1nc1ccccc12)C(=O)NCc1ccc2c(c1)OCO2`, the AC50 under setting [1] is 35.5 µM [falling, single point].

Regarding `O=C(/C=C/c1ccccc1)NCCC1=CCCCC1`, under setting [1], the AC50 was 29.1 µM [falling, single point].

Regarding `C=CCNCC#CCOc1ccc(OC)cc1`, under setting [1], the AC50 is 0.411 µM [rising, full curve, poor fit].

For `Cc1nccc(-c2cc(-c3ccc(Cl)cc3Cl)no2)n1`, under setting [1], the AC50 was 2 µM [rising, full curve, poor fit].

Turning to `Cn1cc(CN(CCO)Cc2cccs2)c(-c2cccc(Cl)c2)n1`, under setting [1], the concentration at half-maximal activity (AC50) was 22.4 µM [falling, single point].

Turning to `CN(Cc1ccccc1F)c1ncnc2sccc12`, the AC50 under setting [1] was 22.4 µM [falling, single point].

On to `CCC(=O)Nc1cccc(NC(=O)c2ccc(Br)cc2)c1`, for which the AC50 under setting [1] is 1.46 µM [falling, full curve, poor fit].

For `CN(CC(=O)Nc1cccc(F)c1)CC(=O)N1CCCCC1`, the AC50 under setting [1] was 29.1 µM [rising, partial curve, poor fit].

For `COc1ccc(C(=O)O/N=C(\C)c2cnccn2)cc1`, under setting [1], the AC50 was 15.8 µM [rising, partial curve, poor fit].

Consider `O=C(Nc1cccc(C(=O)O)c1)/C(=C\c1ccc2c(c1)OCO2)NC(=O)c1ccco1`, for which the AC50 under setting [1] is 31.6 µM [rising, single point].

As for `COc1ccc(-c2cnc(N)n2C)cc1`, the AC50 under setting [1] is 35.5 µM [falling, partial curve, poor fit].

For `Cc1cc(C)nc(-n2nc(C)cc2NC(=O)CNC(C)c2ccccc2)n1` (configuration not stated), under setting [1], the AC50 was 0.794 µM [rising, partial curve, poor fit].

As for `COC(=O)C1(Cc2cc(-c3ccc(Cl)cc3)no2)CCN(C(=O)OC(C)(C)C)CC1`, the concentration at half-maximal activity (AC50) under setting [1] is 12.6 µM [rising, partial curve, poor fit].

For `COc1ccc(CNC(=O)COC(=O)c2ccc(S(=O)(=O)NCc3ccco3)cc2)cc1`, the AC50 under setting [1] is 5.17 µM [rising, single point].

On to `CSc1cccc(NC(=O)Nc2ccccc2C(N)=O)c1`, for which, under setting [1], the AC50 was 35.5 µM [falling, single point].

On to `COC(=O)CN(C)C1CC(=O)N(c2ccc(Cl)cc2)C1=O` (configuration not stated), for which, under setting [1], the AC50 is 23.1 µM [falling, single point].

As for `NC(=O)c1ccsc1NC(=O)COC(=O)Cc1c[nH]c2ccccc12`, the AC50 under setting [1] was 11.6 µM [falling, partial curve, poor fit].

Consider `N#Cc1c(NCCN)nc(-c2ccco2)c2c1CCCC2`, for which the AC50 was 6.51 µM [falling, partial curve, poor fit] under setting [1] and 6.51 µM [rising, partial curve, poor fit] under setting [2].

Take `COc1ccccc1NC(=O)Cc1noc(CSc2cccc[n+]2[O-])n1`: under setting [2], the AC50 is 29.1 µM [falling, single point].

With `COc1ccccc1N1CCN(C2=Nc3cccc4cccc2c34)CC1`, under setting [1], the AC50 is 35.5 µM [falling, single point].

As for `CC1CC(OCC(O)CN2CCCCC2C)CC(C)(C)C1` (configuration not stated), the AC50 under setting [1] is 0.708 µM [rising, full curve, poor fit].

As to `O=C1OCC2=C1C(c1ccc(F)cc1)c1cc3c(cc1N2)OCO3` (configuration not stated), the AC50 is, setting by setting: under setting [1], 0.708 µM [rising, full curve, poor fit]; under setting [2], 0.355 µM [falling, full curve, poor fit].

As to `Cc1cccc(C)c1N=Nc1c(C)cc(O)cc1C`, the AC50 under setting [1] is 17.8 µM [rising, partial curve].

Consider `CN(C)CC#CCCCCCCC#CCN(C)C`, for which the AC50 under setting [1] was 1.16 µM [falling, partial curve, poor fit].

As for `Cc1cc(NC(=O)Cc2cccs2)nn1CC(=O)NCc1ccco1`, the concentration at half-maximal activity (AC50) under setting [1] was 16.4 µM [rising, single point].

On to `Cc1nc(Nc2cccc(Cl)c2)c2oc3ccccc3c2n1`, for which, under setting [1], the AC50 was 12.6 µM [falling, single point].

As to `CC(=O)c1cccc(NC(=S)NC(=O)CC(C)C)c1`, the AC50 under setting [1] is 3.26 µM [rising, full curve, poor fit].

For the compound `COc1ccc(-c2nc(N/N=C(\C)c3ccc(O)cc3)c3ccccc3n2)cc1`, the AC50 under setting [1] was 3.98 µM [rising, partial curve, poor fit].

Turning to `CCCSCCCNC(=O)CC1Oc2ccccc2NC1=O` (configuration not stated), under setting [1], the AC50 is 23.1 µM [falling, partial curve, poor fit].

Turning to `COC(=O)c1cc(NC(=O)c2ccccc2)c(=O)oc1C`, the AC50 under setting [1] was 12.6 µM [falling, partial curve, poor fit].

Regarding `Cc1ccccc1C(=O)N1CCN(CCNC(=O)C(=O)Nc2ccc(Br)cc2)CC1`, under setting [1], the AC50 is 15.8 µM [falling, partial curve].

With `Cc1ccc(C(C)C)c(OCCNC(=S)Nc2cccc3ccccc23)c1`, the AC50 under setting [2] was 18.4 µM [rising, partial curve, poor fit].

As to `Cc1cc(C)n(CCc2nc(-c3ccc(C(C)(C)C)cc3)cs2)n1`, the AC50 under setting [1] was 8.2 µM [falling, full curve, poor fit].

`Cc1cc(C)n(CC(=O)NNC(=O)COc2ccc(Cl)cc2Cl)n1`: the AC50 under setting [1] was 6.51 µM [falling, single point].

With `CCOC(=O)c1sc(NC(=O)c2ccccc2)cc1C`, under setting [1], the AC50 is 25.9 µM [falling, partial curve, poor fit].

For `Cc1ccc(OC/C(O)=C(\C#N)c2nc3ccccc3s2)cc1`, the AC50 under setting [1] was 1.16 µM [falling, full curve, poor fit].

For `Fc1ccccc1CNC(=S)Nc1ccc(Cl)cc1`, the AC50 under setting [1] is 0.461 µM [rising, full curve].

In the case of `Cc1c(C(=O)Nc2ccccc2)oc2c1C(=O)CC(C)(C)C2`, under setting [1], the AC50 is 29.1 µM [falling, single point].

Turning to `O=C(CN(Cc1ccccc1)S(=O)(=O)c1ccc(Br)cc1)NCc1ccco1`, under setting [1], the AC50 was 18.4 µM [falling, partial curve, poor fit].

For the compound `OC(CCN1CCCCC1)(c1ccccc1)C1C[C@@H]2C=C[C@H]1C2` (some centres not stated), the AC50 under setting [1] was 29.1 µM [falling, single point].

In the case of `O=C(O)CCCC(=O)Nc1cccc(-c2nc3ccccc3[nH]2)c1`, the AC50 under setting [1] was 35.5 µM [falling, partial curve, poor fit].

Consider `COC(=O)c1cccc(NC(=O)Cc2nc(-c3ccccc3)sc2-c2ccc(C)cc2)c1`, for which the AC50 under setting [1] is 2.59 µM [rising, full curve].

Consider `O=C1/C(=C/c2ccccn2)SC(=S)N1c1ccc(O)cc1`, for which the AC50 under setting [1] was 10 µM [falling, partial curve, poor fit].

Consider `COc1cccc2cc(C(=O)NCCC3=CCCCC3)c(=O)oc12`, for which, under setting [1], the AC50 was 7.08 µM [falling, partial curve, poor fit].

`O=C(COc1c(Cl)cccc1Cl)NN1C(=O)CSC1=S`: under setting [1], the AC50 is 0.891 µM [falling, full curve, poor fit].

As to `CN(CC1COc2ccccc2O1)C(=S)NC1CCCCC1` (configuration not stated), the AC50 under setting [1] is 5.62 µM [rising, single point].

For `COc1cccc(CNC(=O)c2cc(C3CC3)nc3c2cnn3C(C)C)c1`, the AC50 under setting [1] is 29.1 µM [falling, single point].

Consider `COc1ccc(C(CC(=O)Nc2nccs2)C(C)C)cc1` (configuration not stated), for which the AC50 under setting [1] was 10 µM [falling, partial curve, poor fit].

Take `CCOC(=O)c1c(NC(=O)CCl)sc(C(=O)N(CC)CC)c1C`: the half-maximal activity concentration (AC50) under setting [1] is 5.17 µM [falling, full curve].

With `CCOC(=O)C1(Cc2ccccc2)CCN(Cc2ccc(C3CCCCO3)s2)CC1` (configuration not stated), the AC50 under setting [1] is 11.2 µM [rising, single point].

For orientation: AC50 means the concentration giving half of the maximal activity seen.
